The list shows a part of the results.
B1: il10ra_site1_normal_mot_HHH_b1_03333_000000091_0001_1_17_H_._HHH_b2_06884_0001_0000200021_0000001_0 (protein)
chain: SSSSSYEEAKELIELVVQLIRQGNPEEAEEVLEQLEELAKELNTPSLEFAVRLLKEILEESSSSS
B2: il10ra_site1_sap_21_mot_HHH_b1_00103_000000293_0001_1_15_H_._HHH_b2_08346_0001_0000200016_0000001_0_0001 (protein)
chain: SSSSQEEFEEFKRVVEELIELAREGDEEEFERLFQELHERLERLGDEQFLWALEFIYERSSSSSS
B3: il10ra_site1_normal_mot_ems_3hM_2400_000000184_0001_1_19_H_._HHH_b2_04619_af2_0001_0000100001_0000001_0 (protein)
chain: SSSSSEDEEEVEELLEEAKQIEDEHELAQILFEALRIAAESRDEELFREIIRVAAELLERSSSSS
B4: il10ra_site1_sap_17_mot_HHH_b1_01563_af2_000000118_0001_40_54_H_._HHH_b1_07170_0001_0000300020_0000001_0_0001 (protein)
chain: SSSSSEASQLVYELLRRAVELIHEGNEEEARELLEEAERIAEENNNRVLLINIRMLLERISSSSS
B5: il10ra_site1_normal_mot_HHH_b1_00814_af2_000000078_0001_43_57_H_._HHH_b2_04332_0003_0000300022_0000001_0_af2pred_dldesign_0_af2pred (protein)
chain: SSSSMEEEVNSLLEEAEELLKKGKPDEVFALIKKATELAAAAEDGELLQKVRDFARKVLESSSSS
B6: il10ra_site1_sap_22_mot_HHH_b2_01162_af2_000000234_0001_1_19_H_._527b127d34341fb70d6ba2ed43798e0e_0001_0001_0000100001_0000001_0_0001_af2pred_0001 (protein)
chain: SSSSSSEEIEKEVEELIEEAKEIPDPKERLRVLIKAALLAAEVENQELLHEIAKLLRELSSSSSS
B7: il10ra_site1_normal_mot_HHH_b2_05343_000000235_0001_19_35_H_._ems_3hC_444_0001_af2_0001_0000700027_0000002_0 (protein)
chain: SSDEHQEFFRVVREAIEAAAEKDEEEAQRLVEEAERIAEEIGNLVAEHIVKFVKRLVERLASSSS
B8: il10ra_site1_sap_21_mot_HHH_b2_00564_af2_000000012_0001_18_34_H_._HHH_b2_02403_af2_0001_0000100003_0000002_0_0001_af2pred_0001 (protein)
chain: SDEWEELKRALEELYEKAEENNNPDVRKAARLALEILRKATETNDEELLEVVKLLLRIIEALCSS
B9: il10ra_site1_sap_11_mot_HHH_b2_03220_af2_000000223_0001_23_40_H_._HHH_b1_03120_0001_0000200022_0000002_0_0001 (protein)
chain: SSSSDVAQRIAELLRKAVELDNEGNPEEAEELVEEALELAEERNNDVLRMQAEYLLKIVRSSSSS
B10: il10ra_site1_sap_20_mot_HHH_b1_05426_000000183_0001_42_56_H_._HHH_b1_08425_af2_0001_0000600024_0000001_0_0001_af2pred_0001 (protein)
chain: SSSSSRAEELAEAAKRFLEWLLKEGDPEAARFIAEAAIQALRNLGNPELAEQIEELYEELSSSSS
B11: il10ra_site1_normal_mot_HHH_b2_02386_000000054_0001_1_20_H_._HHH_b1_04169_af2_0002_0000100008_0000002_1 (protein)
chain: SSSSDESEEILQEAREEIEKLLEEGNSDEAYKVARRAIELLIELGDTEALQELQEFFLRISSSSS
B12: il10ra_site1_sap_24_mot_2c1a291787c6f40772924d4e9068d803_0001_af2_000000187_0001_34_48_H_._7562c6833517c195a8c4e1ae8d74ecad_0001_0001_0000400024_0000001_0_0001 (protein)
chain: SSSSSRTEKALEILKRAIELAGNPELAERVEELLERYKEEGDNRYLWEAFELFREAMRLSESSSS
B13: il10ra_site1_sap_20_mot_HHH_b1_03900_000000129_0001_1_16_H_._HHH_b1_01355_af2_0001_0000600019_0000001_0_0001 (protein)
chain: SSSSSEEEQELLELIHQVIELALRGDEEELRELLERALELAEKLNDEKAALNLRNLLEILSSSSS
B14: il10ra_site1_normal_mot_HHH_b2_07144_000000289_0001_1_18_H_._HHH_b1_08187_0001_0000200013_0000001_0 (protein)
chain: SSSSDESQELYKISREIAELLRNGNPEEARELLEELKELAEERNNPIIEAAVRALERALKSSSSS
B15: il10ra_site1_sap_20_mot_HHH_b2_00479_000000091_0001_1_12_H_._HHH_b2_03507_af2_0001_0000700033_0000001_1_0001_af2pred_dldesign_0_af2pred (protein)
chain: SSSSDPEAELEELLAQLKAAGDADAVANVERLKELAEKEKNPELLRLANLYAKYALEAKKSSSSS
B16: il10ra_site1_normal_mot_HHH_b2_07488_000000216_0001_1_17_H_._20bd334181f53d5e88893876e50d2750_0001_af2_0001_0000100001_0000002_0 (protein)
chain: DPEVKEVLEEVKEKFKDDPKARLAVRFAEALLEAGNPEAALSLLRQLAQALGDPELLEKVEELLK
B17: il10ra_site1_normal_mot_HHH_b2_03220_af2_000000223_0001_23_40_H_._HHH_b2_07925_0001_0000200018_0000002_0 (protein)
chain: SSSSDDENEEIWRLLRELLELLFEGDEEQLEELLKEIEKLIEEANSEVFRFSLRAVKKALSSSSS
B18: il10ra_site1_normal_mot_HHH_b1_02397_af2_000000085_0001_39_57_H_._HHH_b2_02616_af2_0001_0000500019_0000002_0 (protein)
chain: SSSSDAEERLKELLEELEELLEEGDRERFARVAQEILRLAFELGDEEALRIVWELVQALYSSSSS
B19: il10ra_site1_sap_23_mot_HHH_b1_08616_000000009_0001_1_19_H_._HHH_b2_04715_af2_0001_0000100004_0000001_0_0001 (protein)
chain: SSSSSDQEEQLIRALLWFAEWTSNPTARRLMLEQAERHARELGNEELREEVERVEKELEESSSSS
B20: il10ra_site1_normal_mot_HHH_b1_00992_000000182_0001_23_40_H_._HHH_b1_04461_0001_0000500022_0000001_0 (protein)
chain: SSSSSSEYLELSLRFAKALLRSGDPEAARRILEAAIQIAEREGDPELLEQLEELLEEIENSSSSS
B21: il10ra_site1_normal_mot_7f9b3cf633cfd27bca007b62ade1be3b_0001_1_000000138_0001_17_32_H_._HHH_b2_08183_0001_0000100015_0000001_0 (protein)
chain: SSSSSEAEITLRFLILSLEIAEELNDEEQLRAALRFLESLAKEANDEEAQEVVEEIRERFSSSSS
B22: il10ra_site1_normal_mot_HHH_b2_03038_000000109_0001_1_20_H_._HHH_b2_04520_0001_0000200024_0000001_0 (protein)
chain: SSSSDEAEELYKLSREINELIREGDDEEARELLEEARELAEEAGNENFRHILEFLKRLLESSSSS
B23: il10ra_site1_normal_mot_HHH_b1_05860_000000142_0001_1_19_H_._HHH_b1_05723_0001_0000200010_0000002_0 (protein)
chain: SSSSDSEEIYRLLREVLELLDEGDQEEAEKLIEEIRRLIEEAGNFVAEFALRLIEQDLEYRSSSS
B24: il10ra_site1_normal_mot_HHH_b2_03183_af2_000000055_0001_40_56_H_._HHH_b2_03444_0001_0000300011_0000002_1 (protein)
chain: SSSSSSTEEELLRAALRLLEQAPDPETRRALEIAIEILAREVGDEEVEEELERLREELSSSSSSS
B25: il10ra_site1_normal_mot_HHH_b1_06914_000000280_0001_1_18_H_._HHH_b1_05152_0001_0000100003_0000001_0 (protein)
chain: SSSSSDETEEIYELSRKALEIRKEDPEEAKELLERALELAEEINSFALAFAVRLALEDLSSSSSS
B26: il10ra_site1_sap_21_mot_HHH_b1_04771_000000013_0001_40_56_H_._HHH_b2_04143_af2_0001_0000300004_0000002_0_0001_af2pred_0001 (protein)
chain: SSSSDKVVERVIKLLREALRLAREGNPEEAEKLLEEAQELAEENNDEYLERVIKFAEHALRSSSS
B27: il10ra_site1_normal_mot_HHH_b2_07540_000000184_0001_1_15_H_._HHH_b1_07591_af2_0001_0000600016_0000001_0 (protein)
chain: SSSSDAEEIVEEAEEELRRLLEEGDPDEAYRVLKEAIQLLAELGNPELARELSRYFLELLSSSSS
B28: il10ra_site1_normal_mot_e933875d0a4b1ebfe8e667f01481c16a_0001_1_af2_000000222_0001_49_63_H_._HHH_b2_03305_0001_0000100007_0000001_0_af2pred_0001 (protein)
chain: SSSSSSKAERLYELSREAIELLRKGNPEEAEKLLEEAEELAEEANDLNSLVVIEFILKRVSSSSS
B29: il10ra_site1_normal_mot_HHH_b1_01879_000000050_0001_1_18_H_._HHH_b2_08350_0001_0000200021_0000001_0_af2pred_dldesign_0_af2pred (protein)
chain: SSSSDLEKEVWDKLVEIYRLLQAGKPEEARELLEELRALAEATKNAKALRRVEAAEIFMKESSSS
B30: il10ra_site1_sap_18_mot_HHH_b1_06789_af2_000000041_0001_1_20_H_._HHH_b2_02597_af2_0001_0000400018_0000001_0_0001 (protein)
chain: SSSSSEEHEELYRLLRAVVELDLDGDPEEAREVLEEVREIAEEANDQLFLRQVEFLLKLLDSSSS
B31: il10ra_site1_normal_mot_HHH_b1_04771_000000013_0001_40_56_H_._HHH_b2_02427_0001_0000300022_0000001_0 (protein)
chain: SSSSSDREEVLKLSQEAFRLALRGNPEEARKVLEEALELAEELGNERAARVIKDLLEVLNSSSSS
B32: il10ra_site1_normal_mot_HHH_b1_05672_af2_000000246_0001_1_19_H_._HHH_b2_02879_af2_0001_0000300014_0000001_0 (protein)
chain: SSSSDEEQRVAELLLRVVRLLFEGNPEEAEEVLKEARRLAEELGDEELERYVEIAENFVRSSSSS
B33: il10ra_site1_sap_30_mot_HHH_b2_00573_000000208_0001_39_53_H_._HHH_b2_07961_0001_0000300034_0000001_0_0001 (protein)
chain: SSSSDEALERAWELSRRVLELIRQGDEEEAERLLEELKELAEESNDPILRYIVEALERLLGSSSS
B34: il10ra_site1_sap_20_mot_HHH_b2_02736_000000092_0001_22_38_H_._HHH_b2_05462_af2_0001_0000300019_0000001_0_0001 (protein)
chain: SSSSSSDKTQEVFELIEEAMQIPDEEEAREVLEEAQRIAEELGNRLLVIQLEFLLRLTSSSSSSS
B35: il10ra_site1_sap_25_mot_HHH_b2_02497_000000141_0001_1_20_H_._HHH_b1_05800_0001_0000200016_0000001_0_0001 (protein)
chain: SSSSDVEERLEEFIEEEARRLNSQLLEQTLKYAIEVELEWGASEEEIEEFLERMIRQIEELSSSS
B36: il10ra_site1_sap_17_mot_HHH_b1_06348_000000162_0001_1_15_H_._HHH_b2_06921_0001_0000200013_0000001_0_0001 (protein)
chain: SSSSSDEEILEKSVRLLLEAAKRIPDPEYAELSLRFAKASVEAQNDEELKELVERAEEELSSSSS
B37: il10ra_site1_normal_mot_HHH_b2_08186_000000021_0001_43_56_H_._HHH_b1_08152_af2_0001_0000200016_0000001_1 (protein)
chain: SSSSDEEEEELEELLEQLERLLREGDRERFLRLIQRALQLAYRASDPEVLQRLWELAREFASSSS

Biological target: il10ra, Q13651
Test: yeast display titration

Apparent Kd, inactive:
B1 no binding seen
B2 no binding seen
B3 no binding seen
B4 no binding seen
B5 no binding seen
B6 no binding seen
B7 no binding seen
B8 no binding seen
B9 no binding seen
B10 no binding seen
B11 no binding seen
B12 no binding seen
B13 no binding seen
B14 no binding seen
B15 no binding seen
B16 no binding seen
B17 no binding seen
B18 no binding seen
B19 no binding seen
B20 no binding seen
B21 no binding seen
B22 no binding seen
B23 no binding seen
B24 no binding seen
B25 no binding seen
B26 no binding seen
B27 no binding seen
B28 no binding seen
B29 no binding seen
B30 no binding seen
B31 no binding seen
B32 no binding seen
B33 no binding seen
B34 no binding seen
B35 no binding seen
B36 no binding seen
B37 no binding seen

2 entries drawn at random from the list so far, as already listed:
Apparent Kd, inactive:
B19 no binding seen
B24 no binding seen

Source: paper PMC10163288
